Assay results: patent US20190002560A1 (Alector, published 2019)
Results are given in words; binding and its absence hold for the method and conditions named. Some entries that bind do so weakly or less than the wild type.

Amino acid sequences for entries named in this document (tags omitted). A change or cut given only in a name is not applied to a line headed by its entry.
UniProt P20138: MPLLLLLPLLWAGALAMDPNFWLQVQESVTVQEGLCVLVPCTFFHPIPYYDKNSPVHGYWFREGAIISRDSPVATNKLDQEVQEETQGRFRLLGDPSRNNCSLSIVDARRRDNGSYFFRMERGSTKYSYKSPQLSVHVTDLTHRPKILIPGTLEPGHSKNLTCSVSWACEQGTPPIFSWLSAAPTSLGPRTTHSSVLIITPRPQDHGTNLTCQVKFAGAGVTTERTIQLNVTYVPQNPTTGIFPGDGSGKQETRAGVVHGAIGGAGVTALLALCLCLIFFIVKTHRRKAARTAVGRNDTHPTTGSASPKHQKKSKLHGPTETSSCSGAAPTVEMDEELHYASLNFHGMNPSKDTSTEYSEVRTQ

Experiments:
human CD33 [1] = target: T1, human CD33 (human, UniProt P20138 18-364); assay: flow cytometry, human primary monocytes, 1, 0.1 or 0.01 ug/ml antibody
human CD33 [2] = target: T1, human CD33; assay: flow cytometry on human primary dendritic cells, antibody titration
human CD33 [3] = target: T1, human CD33; assay: flow cytometry on human primary monocytes, 1 h on ice, PE-conjugated secondary antibody, MFI

Measured: binding

B1: anti-CD33 antibody gemtuzumab (antibody, V domains shown)
VH: EVQLVQSGAEVKKPGSSVKVSCKASGYTITDSNIHWVRQAPGQSLEWIGYIYPYNGGTDYNQKFKNRATLTVDNPTNTAYMELSSLRSEDTAFYYCVNGNPWLAYWGQGTLVTVSS
VL: DIQLTQSPSTLSASVGDRVTITCRASESLDNYGIRFLTWFQQKPGKAPKLLMYAASNQGSGVPSRFSGSGSGTEFTLTISSLQPDDFATYYCQQTKEVPWSFGQGTKVEVKR
notes: Commercially available antibody
binds: all assays above
